According to patent publication US11857532B2, “Treatment and prediction of therapeutic responses in patients suffering from Friedreich ataxia” (INSERM (Institut National de la Santé et de la Recherche …, priority 2018, dated 2024):
At least one structure is not confirmed: it was looked up by name or label, or the drawing left a doubt.

Key:
Type in all cases: cell-based, human
[1] = test system: PDH-E2, α-KGDH; experiment: Immunoblot of PDH-E2 and lipoylated PDH-E2 / α-KGDH in fibroblast mitochondria; conditions: FRDA fibroblasts mitochondria, DCA 5 mM for 72 h
[2] = test system: membrane-bound TfR1; experiment: Imaging flow cytometry (Imagestream) of membrane-bound TfR1 in fibroblasts; conditions: summary statement in discussion; conditions not given
Description: (§1) Skin fibroblasts were grown in Dulbecco's Modified Eagle Medium (DMEM, Life technologies) medium supplemented with 10% fetal bovine serum (FBS), 2 mM L-glutamine, 2.5 mM pyruvate, 100 μg/ml streptomycin, 100 U/ml penicillin at 37° C. For treatment with ferric ammonium citrate (FAC), 80% confluent cells were incubated for 72 h with or without 100 μM FAC in serum-free DMEM (i.e. Tf free). For drug treatment, 80% confluent cells were incubated in DMEM+10% FBS supplemented with 25 μM artesunate (Sigma) in DMSO for 48 h, 25 μM CoA (Sigma) for 72 h and 5 mM DCA (Sigma) for 72 h.
Fibroblasts were starved for one hour in FBS-free DMEM medium (i.e. Tf-free), treated with 5 mM EDTA for harvesting them without disrupting TfR1 located at cell surface, as trypsin does, and then labelled with anti-TfR1 antibody at 4° C. to avoid TfR1 internalization. In this condition only membrane-bound TfR1 is quantified. […]
Total iron contents were measured using a ferrozine-based iron assay modified from (Barbeito et al., 2010). […] In this condition, only membrane-bound TfR1 is quantified. […] Data were acquired using the INSPIRE software (Amnis Corp) and analyzed using the IDEAS™ software (version 6.2 Amnis Corp) on at least 20,000 events. […] Results were expressed as mean pixel intensity value which is the intensity normalized to surface area.

[3] = test system: TfR1; experiment: Western blot of TfR1 steady-state level in fibroblasts; conditions: FRDA fibroblasts; CoA 25 μM 72 h, DCA 5 mM 72 h, artesunate 25 μM 48 h
Description: as §1
Cultured skin fibroblasts were harvested on ice by scraping in reducing (2 μM dithiothreitol, DTT, denaturation at 95° C. for 5 min) or non-reducing cell lysis buffer (no DTT, no heat denaturation). Western bot analysis was performed on 20 μg of whole-cell protein extracts or mitochondrial-enriched fractions in 12% acrylamide gel or 4-15% gel gradient. […]

[4] = test system: TfR1; experiment: TfR1 palmitoylation assay in cultured skin fibroblasts; conditions: FRDA fibroblasts, DCA 5 mM for 72 h
Description: as §1
TfR1 palmitoylation in cultured skin fibroblasts was modified from (Ba et al., 2012). Briefly, cells were lysed on ice in a DTT-free cell lysis buffer and endogenous TfR1 was immunoprecipitated overnight with mouse anti-TfR1 antibody (Life Technologies, 136890) with protein G magnetic beads (BioRad). After washing with PBS, beads were successively incubated 2 h with 50 mM N-ethylmaleimide (NEM) at room temperature, 1 M hydroxylamine and 50 mM HPDP-Biotin (Thermo) in dark for 2 hours. Samples were run in 12% acrylamide gel and biotin-labeled TfR1 level was determined by immunoblotting in non-reducing conditions using Chemidoc technology thanks to a CCD camera (BioRad) and ImageLab software v3.0 (BioRad).

Question: O=C(O)C(Cl)Cl [DCA, dichloroacetate] was tested. Which “altered lipoylation of PDH and α-KGDH” value [1] did it give?
Answer: Its value is “completely or partially rescued”.

Question: And the “steady-state level of PDH-E2” value [1]?
Answer: The value was “completely or partially rescued”.

Question: And the “membrane TfR1 accumulation” value [2]?
Answer: The value was “reduced”.

Question: What about the “steady state level of TfR1” value [3] of the same compound?
Answer: The value was “significantly reduced”.

Question: What about the TfR1 palmitoylation [4] of the same compound?
Answer: The TfR1 palmitoylation was “significantly increased”.
